## Library screen at single concentrations

The chains behind the UniProt entries cited, without tags or fusion partners.
UniProt P9WPC5, whole entry: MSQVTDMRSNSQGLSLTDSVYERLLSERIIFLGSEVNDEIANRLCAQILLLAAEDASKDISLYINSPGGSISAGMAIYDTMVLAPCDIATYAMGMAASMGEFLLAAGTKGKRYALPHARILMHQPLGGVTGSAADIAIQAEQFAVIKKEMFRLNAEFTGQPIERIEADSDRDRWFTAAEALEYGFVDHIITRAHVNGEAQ
UniProt P9WPC3, whole entry partner: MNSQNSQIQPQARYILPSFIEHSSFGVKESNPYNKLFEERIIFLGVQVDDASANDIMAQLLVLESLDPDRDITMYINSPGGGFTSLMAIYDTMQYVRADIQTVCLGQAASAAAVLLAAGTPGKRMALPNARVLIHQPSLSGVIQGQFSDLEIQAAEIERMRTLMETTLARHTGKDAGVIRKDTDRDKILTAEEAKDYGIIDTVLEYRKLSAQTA

Values are the deposited “Percent Effect”, in %. The record does not define 0% and 100%; most values in the screen are far below 50% and negative numbers occur (in some assays of this library far below -100). This is an unselected part of the compounds tested.

Toxoplasma: 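Assay of Toxoplasma gondii numbers, read through their beta-galactosidase reporter with a colour substrate. Tested at 10 µM. Higher reads as fewer parasites (inferred from which compounds were picked for retests). Size under these conditions: about 67,000 compounds, about 260 of them at 50% or above in at least one test.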
ClpP1P2: 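Protease assay of ClpP1P2, read by the AMC dye that it sets free. Target: ClpP1P2, Mycobacterium tuberculosis (UniProt P9WPC5 and UniProt P9WPC3). Concentration: 50 µM. Higher reads as stronger inhibition, judged from the few compounds that gave an IC50. Most other retested compounds had strongly negative values. Of about 69,000 compounds tested this way, about 10 (0.015%) reached 50% or more in at least one test.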
Leishmania in macrophages: 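Cell assay of Leishmania donovani living inside macrophages; the read-out is not stated. Concentration: 30 µM. Higher reads as stronger inhibition (inferred: compounds with an IC50 in retests scored well above the rest). Of about 69,000 compounds tested this way, about 1,000 (1.5%) reached 50% or more in at least one test.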
T. brucei: 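Whole-parasite assay of Trypanosoma brucei over 72 hours; the read-out is not stated. Compounds at 30 µM. The record gives no direction; compounds that gave an IC50 in retests scored well above the rest, so higher reads as stronger inhibition. Values scatter widely below zero; nearly all retest evidence comes from the higher of the two concentrations used. Of about 64,000 compounds tested this way, about 940 (1.5%) reached 50% or more in at least one test.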

[H][C@@]12OCCN(Cc3nccs3)[C@@]1([H])CC[C@@H]2Oc1ccccn1 gave Toxoplasma: 15.13%; Leishmania in macrophages: -3.007%; T. brucei: -76.17%. COCc1cc(N2CCN(c3ccc(Cl)cn3)CC2)n2nccc2n1 gave Toxoplasma: -1.882%; ClpP1P2: -8.658%; Leishmania in macrophages: 2.5%; T. brucei: -43.77%. Result for CO[C@H]1CN(C(=O)c2ccc(-c3cc[nH]n3)cc2)CC[C@H]1N was Toxoplasma: -1.644%; ClpP1P2: 1.437%; Leishmania in macrophages: -3.749%; T. brucei: -0.0689%. CCN1C(=O)C(c2ccccc2)CC12CCN(S(C)(=O)=O)CC2 (stereo not shown) read Toxoplasma: -34.14%; ClpP1P2: -6.558%; Leishmania in macrophages: -5.678%; T. brucei: -22.29%.

For CCc1nc(C2CCCN(c3ncc(Br)cn3)C2)no1 (stereo not shown) the result was Toxoplasma: 4.606%; ClpP1P2: -1.773%; Leishmania in macrophages: 3.232%; T. brucei: -17.81%. Cc1nccn1CCC(=O)N1CCC2(CCC(=O)N(CC3CC3)C2)CC1 gave Toxoplasma: -7.26%; ClpP1P2: 4.412%; Leishmania in macrophages: 23.83%; T. brucei: -12.95%. Cc1ccc(OCc2cccc(C(=O)N(C)C(C)CC#N)c2)cn1 (stereo not shown) read Toxoplasma: -13.66%; ClpP1P2: -0.7108%; Leishmania in macrophages: 11.39%; T. brucei: -15.44%. CN(Cc1ccccc1O)C(=O)NC1CCCN(c2ncccn2)C1 (stereo not shown) gave Toxoplasma: 0.988%; ClpP1P2: 18.62%; Leishmania in macrophages: -28.04%; T. brucei: -35.33%.

O=C(O)C(F)(F)F.[H][C@@]12CN(Cc3nccs3)C[C@@H](C(=O)N3CCOCC3)[C@]1([H])CCO2 read Toxoplasma: -4.098%; Leishmania in macrophages: -8.271%; T. brucei: -22.79%. Result for NS(=O)(=O)c1ccc(CNC(=O)c2ccc(Cl)cc2F)cc1 was Toxoplasma: -2.357%; ClpP1P2: 5.318%; Leishmania in macrophages: 15.75%; T. brucei: 12.12%. With CC(C)c1nccn1CCCNC(=O)c1ccc(-c2cnn(C)c2)nc1 the screen gave Toxoplasma: -0.2887%; ClpP1P2: 7.031%; Leishmania in macrophages: 15.81%; T. brucei: 16.16%. With CNC(=O)Cc1n[nH]c(-c2cncc(Br)c2)n1 the screen gave Toxoplasma: 3.076%; ClpP1P2: 5.603%; Leishmania in macrophages: -1.104%.

COCC1CN(Cc2ccc(OC)cc2)Cc2nn(C)cc21 (stereo not shown) gave ClpP1P2: 8.599%. Cl.Cl.O=C([C@@H]1CSCN1)N1CC2(CCNCC2)c2cc(Cl)ccc21 read Toxoplasma: 6.078%; Leishmania in macrophages: 30.82%; T. brucei: -15.46%. With Cc1cccc(C)c1OCC(=O)Nc1cccn(C)c1=O the screen gave Toxoplasma: 1.326%; ClpP1P2: -5.622%; Leishmania in macrophages: 22.89%; T. brucei: -51.32%. For COc1cccc(OC)c1C(=O)N1CC(=O)N(C2CCC2)CC(O)C1 (stereo not shown) the result was Toxoplasma: -5.791%; ClpP1P2: -5.008%; Leishmania in macrophages: -4.985%; T. brucei: -44.07%.

Some entries from above, unchanged:

| compound | Toxoplasma | ClpP1P2 | Leishmania in macrophages | T. brucei |
|---|---|---|---|---|
| `COc1cccc(OC)c1C(=O)N1CC(=O)N(C2CCC2)CC(O)C1` (stereo not shown) | -5.791 | -5.008 | -4.985 | -44.07 |
| `CC(C)c1nccn1CCCNC(=O)c1ccc(-c2cnn(C)c2)nc1` | -0.2887 | 7.031 | 15.81 | 16.16 |

The values are deposited in ChEMBL (CHEMBL3988442, “University of Dundee, Small-Polar-MMV Screening Library” (2021)).